# Experimental data: the supplement of paper PMC10849652
# Amino acid sequences for entries named in this document (tags omitted). A change or cut given only in a name is not applied to a line headed by its entry.
# UniProt Q8IZV5: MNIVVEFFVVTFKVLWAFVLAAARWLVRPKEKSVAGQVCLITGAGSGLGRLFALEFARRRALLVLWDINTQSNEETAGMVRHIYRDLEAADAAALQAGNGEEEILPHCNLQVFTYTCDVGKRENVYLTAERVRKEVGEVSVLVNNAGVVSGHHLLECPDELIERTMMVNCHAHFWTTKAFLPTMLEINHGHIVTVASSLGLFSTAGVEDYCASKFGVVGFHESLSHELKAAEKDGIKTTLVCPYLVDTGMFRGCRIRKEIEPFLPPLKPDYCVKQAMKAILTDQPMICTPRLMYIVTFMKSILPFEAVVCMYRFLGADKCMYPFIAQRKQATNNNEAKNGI
# UniProt Q14498: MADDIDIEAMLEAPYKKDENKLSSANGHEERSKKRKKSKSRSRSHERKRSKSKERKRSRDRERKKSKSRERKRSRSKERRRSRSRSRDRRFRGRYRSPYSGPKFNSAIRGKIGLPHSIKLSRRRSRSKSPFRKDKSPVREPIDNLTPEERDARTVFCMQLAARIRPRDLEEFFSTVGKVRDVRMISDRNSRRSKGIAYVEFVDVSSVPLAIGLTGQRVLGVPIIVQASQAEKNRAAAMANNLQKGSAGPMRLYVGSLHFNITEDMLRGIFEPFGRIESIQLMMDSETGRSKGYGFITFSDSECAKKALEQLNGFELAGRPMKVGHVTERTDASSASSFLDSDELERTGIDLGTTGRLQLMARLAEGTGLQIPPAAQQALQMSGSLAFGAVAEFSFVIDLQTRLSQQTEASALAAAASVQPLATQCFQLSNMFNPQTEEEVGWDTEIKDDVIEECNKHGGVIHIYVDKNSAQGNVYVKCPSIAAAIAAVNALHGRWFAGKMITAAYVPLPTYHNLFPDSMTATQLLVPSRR
# UniProt P35241, whole entry, looked up: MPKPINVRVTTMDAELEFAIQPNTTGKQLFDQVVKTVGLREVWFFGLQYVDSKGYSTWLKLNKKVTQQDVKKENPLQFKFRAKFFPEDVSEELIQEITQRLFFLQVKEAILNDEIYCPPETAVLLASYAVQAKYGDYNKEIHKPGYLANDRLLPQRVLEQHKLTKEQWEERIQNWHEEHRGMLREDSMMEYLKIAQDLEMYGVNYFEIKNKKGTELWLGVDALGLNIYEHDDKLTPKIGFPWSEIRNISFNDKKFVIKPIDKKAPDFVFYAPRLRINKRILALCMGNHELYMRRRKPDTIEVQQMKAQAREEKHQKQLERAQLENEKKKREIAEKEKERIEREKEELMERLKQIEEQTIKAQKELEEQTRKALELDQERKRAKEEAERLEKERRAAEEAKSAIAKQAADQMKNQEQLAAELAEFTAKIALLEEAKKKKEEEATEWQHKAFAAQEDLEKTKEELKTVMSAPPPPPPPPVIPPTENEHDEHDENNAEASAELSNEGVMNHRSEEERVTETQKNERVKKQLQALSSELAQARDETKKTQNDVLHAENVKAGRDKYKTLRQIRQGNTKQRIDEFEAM
# UniProt P28749: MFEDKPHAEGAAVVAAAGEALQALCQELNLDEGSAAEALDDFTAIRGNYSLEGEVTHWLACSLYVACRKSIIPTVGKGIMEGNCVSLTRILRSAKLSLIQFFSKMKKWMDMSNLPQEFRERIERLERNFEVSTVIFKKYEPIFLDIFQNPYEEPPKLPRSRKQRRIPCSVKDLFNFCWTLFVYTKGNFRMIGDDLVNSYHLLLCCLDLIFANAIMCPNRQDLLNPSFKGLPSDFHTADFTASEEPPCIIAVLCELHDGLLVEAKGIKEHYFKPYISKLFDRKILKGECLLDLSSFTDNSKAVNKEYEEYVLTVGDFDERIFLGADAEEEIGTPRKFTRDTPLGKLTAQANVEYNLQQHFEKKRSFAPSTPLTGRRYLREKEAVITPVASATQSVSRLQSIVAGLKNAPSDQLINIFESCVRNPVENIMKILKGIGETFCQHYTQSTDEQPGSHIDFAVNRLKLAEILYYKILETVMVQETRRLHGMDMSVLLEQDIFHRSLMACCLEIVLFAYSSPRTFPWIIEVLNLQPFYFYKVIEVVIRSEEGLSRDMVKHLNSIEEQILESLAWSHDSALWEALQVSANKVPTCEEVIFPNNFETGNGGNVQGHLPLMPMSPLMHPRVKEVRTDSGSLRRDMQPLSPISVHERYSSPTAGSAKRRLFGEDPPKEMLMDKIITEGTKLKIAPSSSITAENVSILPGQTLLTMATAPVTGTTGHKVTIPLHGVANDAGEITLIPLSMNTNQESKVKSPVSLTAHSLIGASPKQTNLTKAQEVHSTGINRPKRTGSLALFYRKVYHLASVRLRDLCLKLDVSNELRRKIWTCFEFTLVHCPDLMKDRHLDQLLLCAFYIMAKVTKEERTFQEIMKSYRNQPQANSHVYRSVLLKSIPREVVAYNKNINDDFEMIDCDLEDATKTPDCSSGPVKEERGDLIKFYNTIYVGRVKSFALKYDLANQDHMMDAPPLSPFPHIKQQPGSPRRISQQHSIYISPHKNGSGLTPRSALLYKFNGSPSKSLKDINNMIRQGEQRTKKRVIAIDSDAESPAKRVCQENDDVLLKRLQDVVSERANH
# UniProt Q6JBY9, whole entry, looked up: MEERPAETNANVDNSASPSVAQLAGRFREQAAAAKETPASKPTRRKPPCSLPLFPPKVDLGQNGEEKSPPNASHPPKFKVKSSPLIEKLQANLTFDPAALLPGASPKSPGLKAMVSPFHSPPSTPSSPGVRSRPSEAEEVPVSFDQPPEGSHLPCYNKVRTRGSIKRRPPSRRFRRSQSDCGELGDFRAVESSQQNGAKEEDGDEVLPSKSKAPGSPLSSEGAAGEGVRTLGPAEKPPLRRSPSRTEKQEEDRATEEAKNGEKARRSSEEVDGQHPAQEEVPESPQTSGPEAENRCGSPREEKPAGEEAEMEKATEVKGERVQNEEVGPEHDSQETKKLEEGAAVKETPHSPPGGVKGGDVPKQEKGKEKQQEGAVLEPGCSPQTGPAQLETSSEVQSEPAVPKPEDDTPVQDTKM
# UniProt P35249, whole entry, looked up: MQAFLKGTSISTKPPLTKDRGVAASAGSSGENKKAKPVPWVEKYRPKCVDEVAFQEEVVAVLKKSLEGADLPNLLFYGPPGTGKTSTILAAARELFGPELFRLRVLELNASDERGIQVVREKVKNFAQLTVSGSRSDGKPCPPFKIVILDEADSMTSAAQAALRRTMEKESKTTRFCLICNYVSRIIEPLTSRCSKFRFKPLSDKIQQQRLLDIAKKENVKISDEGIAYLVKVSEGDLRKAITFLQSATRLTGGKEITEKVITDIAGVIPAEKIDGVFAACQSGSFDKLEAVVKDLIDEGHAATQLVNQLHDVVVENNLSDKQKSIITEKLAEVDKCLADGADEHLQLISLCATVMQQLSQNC
# UniProt Q86VR2, whole entry, looked up: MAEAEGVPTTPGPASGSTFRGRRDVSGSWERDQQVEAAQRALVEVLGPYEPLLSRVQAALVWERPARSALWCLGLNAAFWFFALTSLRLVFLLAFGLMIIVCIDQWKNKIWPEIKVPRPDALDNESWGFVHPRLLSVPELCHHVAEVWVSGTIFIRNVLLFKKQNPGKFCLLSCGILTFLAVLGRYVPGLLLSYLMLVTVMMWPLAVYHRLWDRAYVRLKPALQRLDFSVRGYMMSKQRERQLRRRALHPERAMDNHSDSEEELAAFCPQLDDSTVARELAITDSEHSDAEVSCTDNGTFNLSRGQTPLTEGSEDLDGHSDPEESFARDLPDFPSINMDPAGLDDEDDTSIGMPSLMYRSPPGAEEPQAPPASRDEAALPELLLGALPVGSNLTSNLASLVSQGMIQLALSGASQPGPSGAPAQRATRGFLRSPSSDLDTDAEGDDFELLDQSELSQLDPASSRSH
# UniProt Q9P2N5: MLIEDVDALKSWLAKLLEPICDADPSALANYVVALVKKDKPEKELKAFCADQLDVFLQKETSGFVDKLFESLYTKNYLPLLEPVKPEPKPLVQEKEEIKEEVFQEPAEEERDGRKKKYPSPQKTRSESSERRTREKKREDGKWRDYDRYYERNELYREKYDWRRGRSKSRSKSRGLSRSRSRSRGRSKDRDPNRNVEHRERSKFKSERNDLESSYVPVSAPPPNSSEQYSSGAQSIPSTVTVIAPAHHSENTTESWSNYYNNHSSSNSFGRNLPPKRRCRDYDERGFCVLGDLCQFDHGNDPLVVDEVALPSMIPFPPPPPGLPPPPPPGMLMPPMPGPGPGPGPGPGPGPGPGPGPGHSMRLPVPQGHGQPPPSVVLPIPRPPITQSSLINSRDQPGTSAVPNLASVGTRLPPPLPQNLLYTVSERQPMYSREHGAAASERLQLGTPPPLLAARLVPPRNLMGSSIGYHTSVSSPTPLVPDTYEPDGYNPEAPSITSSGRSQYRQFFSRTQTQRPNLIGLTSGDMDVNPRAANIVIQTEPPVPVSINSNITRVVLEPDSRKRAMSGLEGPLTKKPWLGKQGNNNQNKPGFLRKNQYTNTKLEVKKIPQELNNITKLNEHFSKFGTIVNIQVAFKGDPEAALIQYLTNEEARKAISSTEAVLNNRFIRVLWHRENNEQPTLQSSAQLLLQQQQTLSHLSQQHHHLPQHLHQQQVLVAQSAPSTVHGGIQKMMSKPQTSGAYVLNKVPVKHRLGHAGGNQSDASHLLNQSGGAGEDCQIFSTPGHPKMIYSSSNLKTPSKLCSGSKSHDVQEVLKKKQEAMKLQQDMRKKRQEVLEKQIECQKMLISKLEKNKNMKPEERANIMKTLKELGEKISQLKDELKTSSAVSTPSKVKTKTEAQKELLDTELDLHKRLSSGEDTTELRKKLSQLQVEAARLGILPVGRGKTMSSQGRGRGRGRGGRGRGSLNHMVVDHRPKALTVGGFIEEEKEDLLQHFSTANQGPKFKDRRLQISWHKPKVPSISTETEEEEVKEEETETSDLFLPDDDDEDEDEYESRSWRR
# UniProt Q9BWF3: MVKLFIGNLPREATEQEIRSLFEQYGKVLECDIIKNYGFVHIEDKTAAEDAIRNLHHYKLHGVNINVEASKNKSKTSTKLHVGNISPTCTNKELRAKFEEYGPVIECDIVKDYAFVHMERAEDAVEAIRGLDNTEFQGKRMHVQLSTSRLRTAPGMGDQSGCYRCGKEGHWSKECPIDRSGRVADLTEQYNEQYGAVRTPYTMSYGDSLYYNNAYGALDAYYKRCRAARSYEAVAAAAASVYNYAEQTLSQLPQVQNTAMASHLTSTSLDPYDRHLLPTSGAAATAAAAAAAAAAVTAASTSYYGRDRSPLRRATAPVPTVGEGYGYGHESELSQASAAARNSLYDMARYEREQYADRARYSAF
# UniProt Q96I25: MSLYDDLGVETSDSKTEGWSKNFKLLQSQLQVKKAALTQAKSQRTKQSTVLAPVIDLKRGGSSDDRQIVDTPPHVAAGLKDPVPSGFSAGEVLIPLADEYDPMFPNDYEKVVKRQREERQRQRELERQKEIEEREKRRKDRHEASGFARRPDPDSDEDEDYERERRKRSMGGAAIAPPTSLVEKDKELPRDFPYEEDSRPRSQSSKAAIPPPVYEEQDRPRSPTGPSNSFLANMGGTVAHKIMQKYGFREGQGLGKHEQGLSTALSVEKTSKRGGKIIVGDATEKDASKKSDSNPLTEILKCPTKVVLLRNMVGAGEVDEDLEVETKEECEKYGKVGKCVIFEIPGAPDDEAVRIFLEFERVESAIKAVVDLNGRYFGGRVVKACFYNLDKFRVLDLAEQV
# UniProt Q92546: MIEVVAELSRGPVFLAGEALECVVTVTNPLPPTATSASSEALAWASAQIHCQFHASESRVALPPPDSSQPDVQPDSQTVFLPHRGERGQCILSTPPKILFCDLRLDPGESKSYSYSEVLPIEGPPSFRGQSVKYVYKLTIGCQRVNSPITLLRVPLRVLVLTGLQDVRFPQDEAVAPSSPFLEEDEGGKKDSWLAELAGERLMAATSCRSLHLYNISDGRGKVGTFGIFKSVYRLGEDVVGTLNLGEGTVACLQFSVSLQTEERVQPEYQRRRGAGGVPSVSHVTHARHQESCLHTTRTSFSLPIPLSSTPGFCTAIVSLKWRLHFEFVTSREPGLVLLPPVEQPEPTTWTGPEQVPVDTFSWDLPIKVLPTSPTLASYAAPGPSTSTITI
# UniProt Q86U06: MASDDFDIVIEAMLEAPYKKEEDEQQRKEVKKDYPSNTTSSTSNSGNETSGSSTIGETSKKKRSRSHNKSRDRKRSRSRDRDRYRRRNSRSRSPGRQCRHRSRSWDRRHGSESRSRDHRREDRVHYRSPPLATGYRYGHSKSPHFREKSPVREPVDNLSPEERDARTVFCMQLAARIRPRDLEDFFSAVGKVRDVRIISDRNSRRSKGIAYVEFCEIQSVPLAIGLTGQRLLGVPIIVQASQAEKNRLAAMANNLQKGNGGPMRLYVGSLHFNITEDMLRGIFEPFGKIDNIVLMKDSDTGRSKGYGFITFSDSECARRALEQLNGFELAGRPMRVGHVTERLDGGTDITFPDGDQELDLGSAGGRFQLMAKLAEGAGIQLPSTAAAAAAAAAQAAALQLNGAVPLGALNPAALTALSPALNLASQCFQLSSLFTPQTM
# This is one part of the list.
# Key:
# Experiment in all cases: log2 fold change, soluble protein after heating vs DMSO (PISA); higher = thermal stabilisation; K562 lysate, 10 uM; active = over 0.2 and 3.5 SD of the protein, either way, in both replicates (recomputed)
# [1] = compound: CN1CC[C@H](c2c(O)cc(O)c3c(=O)cc(-c4ccccc4Cl)oc23)[C@H](O)C1 [alvocidib]
# Procedure, shortened: (§1)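 Thermal stability, expressed as log-two fold change relative to solvent controls, is given from duplicates. Crude K562 extract in PBS pH 7.4 with 1 mM MgCl2, at 1 mg/mL protein, was treated with 10 μM compound for 30 min and heated in aliquots for 3 min across 48°C-58°C. After pooling, adjustment to 0.5% NP-40 at 4°C and centrifugation at 21,000xg for 90 min, supernatant protein was measured by TMTpro 16plex LC-MS/MS with channel sums equalised.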
# [2] = compound: CN1CCc2c(c3ccccc3n2Cc2ccc(C(=O)NO)cc2)C1 [Tubastatin A]
# Procedure, shortened: as §1
# [3] = compound: CNC(=O)C1=CC=CC=C1NC2=NC(=NC=C2Cl)NC3=C(C=C(C=C3)N4CCOCC4)OC
# Procedure, shortened: as §1
# [4] = compound: CNC(=O)c1ccc(Nc2ncc(C(F)(F)F)c(NCc3nccnc3N(C)S(C)(=O)=O)n2)cc1 [defactinib]
# Procedure, shortened: as §1
# [5] = compound: CNc1nc(-c2ccc3c(N)n[nH]c3c2)cc(N2C[C@@H](C(=O)NC3CCCCC3)CC[C@H]2C)n1
# Procedure, shortened: as §1
# [6] = compound: COC(=O)N[C@@H](C)CNc1nccc(-c2cn(C(C)C)nc2-c2cc(Cl)cc(NS(C)(=O)=O)c2F)n1 [encorafenib]
# Procedure, shortened: as §1
# [7] = compound: COC(=O)[C@H](CCSC)NC(=O)C1=C(C=C(C=C1)NC[C@H](CS)N)C2=CC=CC=C2
# Procedure, shortened: as §1
# [8] = compound: COc1cc(Nc2ncc3c(n2)-c2ccc(Cl)cc2C(c2c(F)cccc2OC)=NC3)ccc1C(=O)O [alisertib]
# Procedure, shortened: as §1
# [9] = compound: COc1cc2nc(-c3cc(F)ccc3O)nc(N[C@@H]3CNC[C@H]3C(C)(C)O)c2cc1OC
# Procedure, shortened: as §1
# [10] = compound: COc1cc2ncnc(Nc3ccc(F)c(Cl)c3)c2cc1OCCCN1CCOCC1 [gefitinib]
# Procedure, shortened: as §1
# [11] = compound: CS(=O)(=O)CCNCc1ccc(-c2ccc3ncnc(Nc4ccc(OCc5cccc(F)c5)c(Cl)c4)c3c2)o1 [lapatinib]
# Procedure, shortened: as §1
# [12] = compound: CS(=O)(=O)N1CCN(Cc2cc3nc(-c4cccc5[nH]ncc45)nc(N4CCOCC4)c3s2)CC1 [pictilisib]
# Procedure, shortened: as §1
# [13] = compound: C[C@@H](Oc1cc(-c2cnn(C3CCNCC3)c2)cnc1N)c1c(Cl)ccc(F)c1Cl [crizotinib]
# Procedure, shortened: as §1
# [14] = compound: C[C@H](C1=CC=C(C=C1)C(=O)NC2=C3C=CNC3=NC=C2)N
# Procedure, shortened: as §1
# [15] = compound: C[C@H](Nc1ncnc2nc[nH]c12)c1cc2cccc(Cl)c2c(=O)n1-c1ccccc1 [duvelisib]
# Procedure, shortened: as §1
# [16] = compound: Cc1cc(Nc2cc(CN3CCOCC3)c3nc(C)c(Cc4ccc(Cl)cc4F)n3n2)n[nH]1 [gandotinib]
# Procedure, shortened: as §1
# [17] = compound: Cc1cc(Nc2cc(N3CCN(C)CC3)nc(Sc3ccc(NC(=O)C4CC4)cc3)n2)n[nH]1 [tozasertib]
# Procedure, shortened: as §1
# [18] = compound: Cc1ccc(-n2nc(C(C)(C)C)cc2NC(=O)Nc2ccc(OCCN3CCOCC3)c3ccccc23)cc1 [doramapimod]
# Procedure, shortened: as §1
# [19] = compound: Cc1ccc(NC(=O)c2ccc(CN3CC[C@H](N(C)C)C3)c(C(F)(F)F)c2)cc1Nc1nccc(-c2cncnc2)n1 [bafetinib]
# Procedure, shortened: as §1
# [20] = compound: Cc1cccc(CC(=O)N2CCc3c2ccc(-c2cn(C)c4ncnc(N)c24)c3F)n1
# Procedure, shortened: as §1
Target,log2 fold change [1],log2 fold change [2],log2 fold change [3],log2 fold change [4],log2 fold change [5],log2 fold change [6],log2 fold change [7],log2 fold change [8],log2 fold change [9],log2 fold change [10],log2 fold change [11],log2 fold change [12],log2 fold change [13],log2 fold change [14],log2 fold change [15],log2 fold change [16],log2 fold change [17],log2 fold change [18],log2 fold change [19],log2 fold change [20]
RDH10 (UniProt Q8IZV5),inactive: -0.013,inactive: 0.015,inactive: 0.069,inactive: 0.009,inactive: -0.013,inactive: -0.001,active: 0.346,inactive: 0.037,inactive: 0.007,inactive: -0.004,inactive: 0.004,inactive: -0.035,inactive: 0.062,inactive: -0.039,inactive: 0.022,inactive: 0.055,inactive: -0.032,inactive: -0.012,inactive: 0.001,inactive: 0.043
RBM39 (UniProt Q14498),inactive: -0.176,inactive: -0.04,inactive: -0.055,inactive: -0.095,inactive: 0.081,inactive: 0.045,inactive: 0.013,inactive: 0.023,inactive: -0.007,inactive: 0.003,inactive: 0.066,inactive: 0.025,inactive: -0.017,inactive: -0.109,inactive: 0.02,inactive: -0.087,inactive: 0.047,inactive: 0.124,inactive: -0.054,inactive: 0.123
RDX (UniProt P35241),inactive: 0.116,inactive: 0.042,inactive: -0.002,inactive: -0.009,inactive: 0.034,inactive: -0.047,inactive: -0.033,inactive: -0.018,inactive: 0,inactive: 0.013,inactive: -0.018,inactive: 0.02,inactive: 0.063,active: 0.546,inactive: 0.005,inactive: -0.093,inactive: -0.005,inactive: -0.045,inactive: 0.077,inactive: -0.136
"RAPGEF5, A0A590UJR0",inactive: -0.06,inactive: 0.083,inactive: 0.064,inactive: -0.172,inactive: -0.009,inactive: -0.26,inactive: 0.066,inactive: 0.068,inactive: 0.003,inactive: 0.177,inactive: -0.115,inactive: -0.097,inactive: -0.17,inactive: -0.097,inactive: -0.012,inactive: 0.095,inactive: 0.12,inactive: 0.022,inactive: -0.422,inactive: 0.059
RBL1 (UniProt P28749),inactive: -0.08,inactive: -0.056,inactive: -0.01,inactive: -0.074,inactive: 0.096,inactive: 0.042,inactive: 0.095,inactive: -0.131,inactive: 0.007,inactive: -0.159,inactive: 0.037,inactive: -0.016,inactive: -0.06,inactive: -0.003,inactive: -0.055,inactive: 0.032,inactive: -0.023,inactive: -0.092,inactive: -0.041,inactive: 0.049
RCC1 isoform 2 (UniProt P18754),inactive: 0.012,inactive: -0.168,inactive: 0.018,inactive: 0.055,inactive: -0.007,inactive: 0.006,inactive: 0.151,inactive: 0.006,inactive: -0.017,inactive: -0.003,inactive: -0.018,inactive: 0.009,inactive: -0.063,inactive: -0.019,inactive: 0.017,inactive: -0.066,inactive: 0.011,inactive: -0.017,inactive: -0.01,inactive: 0.034
RCSD1 (UniProt Q6JBY9),inactive: -0.007,inactive: 0.049,inactive: -0.023,inactive: 0.01,inactive: 0.063,inactive: -0.009,inactive: -0.016,inactive: 0.001,inactive: 0.006,inactive: -0.01,inactive: 0.013,inactive: 0.003,inactive: -0.005,inactive: -0.018,inactive: 0.003,inactive: 0.034,inactive: -0.019,inactive: 0.016,inactive: -0.033,inactive: 0.004
RFC4 (UniProt P35249),inactive: -0.018,inactive: -0.119,inactive: 0.018,inactive: 0.009,inactive: -0.043,inactive: 0.018,inactive: 0.088,inactive: 0.022,inactive: 0.003,inactive: -0.006,inactive: -0.01,inactive: -0.004,inactive: -0.027,inactive: -0.065,inactive: 0.01,inactive: -0.028,inactive: -0.027,inactive: 0.035,inactive: -0.018,inactive: 0.041
RC3H1 (UniProt Q5TC82),inactive: -0.013,inactive: -0.103,inactive: 0.015,inactive: -0.04,inactive: -0.026,inactive: 0.061,inactive: -0.025,inactive: -0.002,inactive: 0.072,inactive: -0.074,inactive: 0.026,inactive: 0.011,inactive: -0.03,inactive: 0.044,inactive: -0.044,inactive: -0.122,inactive: 0.042,inactive: -0.007,inactive: -0.025,inactive: -0.044
RETREG3 (UniProt Q86VR2),inactive: 0,inactive: -0.05,inactive: -0.01,inactive: -0.031,inactive: 0.002,inactive: 0.024,inactive: -0.12,inactive: -0.006,inactive: -0.069,inactive: -0.025,inactive: -0.098,inactive: -0.059,inactive: -0.183,inactive: 0.026,inactive: 0.065,inactive: -0.11,inactive: 0.026,inactive: 0.014,inactive: -0.089,inactive: 0.013
RBM27 (UniProt Q9P2N5),inactive: -0.132,inactive: -0.037,inactive: -0.026,inactive: -0.017,inactive: -0.033,inactive: 0.037,inactive: -0.13,inactive: 0.019,inactive: -0.042,inactive: -0.041,inactive: 0.043,inactive: -0.021,inactive: 0.095,inactive: -0.049,inactive: -0.024,inactive: -0.181,inactive: 0.04,inactive: 0.021,inactive: -0.051,inactive: 0.042
RBM4 (UniProt Q9BWF3),inactive: 0.16,inactive: -0.168,inactive: 0.013,inactive: -0.011,inactive: -0.088,inactive: 0.089,inactive: -0.066,inactive: 0.037,inactive: 0.006,inactive: -0.004,inactive: -0.015,inactive: -0.01,inactive: 0.018,inactive: 0.183,inactive: -0.003,inactive: -0.097,inactive: 0.075,inactive: -0.109,inactive: -0.02,inactive: -0.069
RBM17 (UniProt Q96I25),inactive: 0.009,inactive: -0.084,inactive: 0.019,inactive: -0.002,inactive: -0.017,inactive: 0.01,inactive: 0.028,inactive: 0.014,inactive: -0.015,inactive: 0.008,inactive: 0.003,inactive: -0.004,inactive: -0.012,inactive: 0.017,inactive: -0.009,inactive: -0.077,inactive: -0.033,inactive: 0.014,inactive: -0.047,inactive: -0.052
RGP1 (UniProt Q92546),inactive: -0.152,inactive: -0.17,inactive: -0.025,inactive: -0.135,inactive: -0.088,inactive: 0.094,inactive: -0.083,inactive: -0.008,inactive: 0.087,inactive: -0.083,inactive: -0.062,inactive: -0.089,inactive: -0.133,inactive: -0.074,inactive: 0.038,inactive: 0.072,inactive: -0.037,inactive: 0.015,inactive: 0.136,inactive: 0.329
RAVER1 (UniProt E9PAU2),inactive: 0.033,inactive: 0.018,inactive: 0.074,inactive: 0.024,inactive: 0.044,inactive: 0.099,inactive: 0.09,inactive: 0.075,inactive: 0.027,inactive: 0.056,inactive: 0.03,inactive: 0.067,inactive: 0.01,inactive: 0.018,inactive: -0.021,inactive: -0.033,inactive: -0.087,inactive: -0.014,inactive: 0.039,inactive: -0.002
RBM23 isoform 2 (UniProt Q86U06),inactive: -0.056,inactive: -0.084,inactive: 0.133,inactive: -0.037,inactive: 0.181,inactive: 0.335,inactive: -0.003,inactive: 0.11,inactive: 0.137,inactive: 0.057,inactive: 0.056,inactive: -0.053,inactive: -0.076,inactive: 0.044,inactive: -0.008,inactive: 0.272,inactive: 0.053,active: 0.489,inactive: -0.114,inactive: 0.083

# Three entries from above in another layout.
Target	log2 fold change [1]	log2 fold change [2]	log2 fold change [3]	log2 fold change [4]	log2 fold change [5]	log2 fold change [6]	log2 fold change [7]	log2 fold change [8]	log2 fold change [9]	log2 fold change [10]	log2 fold change [11]	log2 fold change [12]	log2 fold change [13]	log2 fold change [14]	log2 fold change [15]	log2 fold change [16]	log2 fold change [17]	log2 fold change [18]	log2 fold change [19]	log2 fold change [20]
RBM4 (UniProt Q9BWF3)	inactive: 0.16	inactive: -0.168	inactive: 0.013	inactive: -0.011	inactive: -0.088	inactive: 0.089	inactive: -0.066	inactive: 0.037	inactive: 0.006	inactive: -0.004	inactive: -0.015	inactive: -0.01	inactive: 0.018	inactive: 0.183	inactive: -0.003	inactive: -0.097	inactive: 0.075	inactive: -0.109	inactive: -0.02	inactive: -0.069
RBM17 (UniProt Q96I25)	inactive: 0.009	inactive: -0.084	inactive: 0.019	inactive: -0.002	inactive: -0.017	inactive: 0.01	inactive: 0.028	inactive: 0.014	inactive: -0.015	inactive: 0.008	inactive: 0.003	inactive: -0.004	inactive: -0.012	inactive: 0.017	inactive: -0.009	inactive: -0.077	inactive: -0.033	inactive: 0.014	inactive: -0.047	inactive: -0.052
RGP1 (UniProt Q92546)	inactive: -0.152	inactive: -0.17	inactive: -0.025	inactive: -0.135	inactive: -0.088	inactive: 0.094	inactive: -0.083	inactive: -0.008	inactive: 0.087	inactive: -0.083	inactive: -0.062	inactive: -0.089	inactive: -0.133	inactive: -0.074	inactive: 0.038	inactive: 0.072	inactive: -0.037	inactive: 0.015	inactive: 0.136	inactive: 0.329
